Laboratory results reported in article PMC6152322, “Synthesis and Evaluation of New Oxadiazole, Thiadiazole, and Triazole Derivatives as Potential Anticancer Agents Targeting MMP-9” (Molecules : A Journal of Synthetic Chemistry and Natural …, 2017).
Where “and” joins values, the source holds several entries; their conditions need not be identical. Equal entries are not always repeated.

Tests used:
[1] = tested on: A549 human lung adenocarcinoma cell line; assay: XTT cytotoxicity assay on A549 cells; type: cell-based; details: SI = IC50 for NIH/3T3 / IC50 for A549 × 100; >value taken as the value itself
Source text: (§1) NIH/3T3 Mouse embryonic fibroblast (ATCC® CRL-1658™, American Type Culture Collection (ATCC), Manassas, VA, USA), A549 human lung adenocarcinoma (ATCC® CCL-185™, American Type Culture Collection (ATCC), Manassas, VA, USA) and C6 rat glioma (ATCC® CCL-107™, American Type Culture Collection (ATCC), Manassas, VA, USA) cell lines were used for cytotoxicity tests. NIH/3T3 cell line was used to investigate the selectivity of the compounds, whereas other cell lines were used to determine anticancer activity. All cell lines were incubated according to the instructions of the supplier at 37 °C in a humidified atmosphere of 95% air and 5% CO2. NIH/3T3, A549 and C6 cells were seeded at 1 × 10^4 cells into each well of 96-well plate. After 24 h of incubating period, the culture mediums were removed and compound was added to culture medium at 500–3.9 μg/mL doses with a dilution factor of 2 (3.9, 7.8, 15.6, 31.2, 62.5, 125, 250, 500 μg/mL). After 24 h of incubation, XTT (2,3-bis(2-methoxy-4-nitro-5-sulfophenyl)-2H-tetrazolium-5-carboxanilide) assay was performed using the In Cytotox-XTT 1 Parameter Cytotoxicity Kit (Xenometrix, Allschwil, Switzerland) as previously described. […] All experiments were done in quadruplicates at three different time points, and the results were given as Mean ± standard deviation. Cisplatin was used as a positive control. The stock solutions of the compounds were prepared in dimethyl sulfoxide (DMSO) and further dilutions were made with fresh culture medium. The final DMSO concentration was under 0.1%.
(§2) Inhibition%=100−( corrected mean OD sample/corrected mean OD solvent controls ×100)

C6 rat glioma cell line = assay: XTT cytotoxicity assay on C6 cells; type: cell-based; details: SI = IC50 for NIH/3T3 / IC50 for C6 × 100; >value taken as the value itself
Source text: as §1, §2

| SMILES | SI Values A549 [1] | SI Values C6 (C6 rat glioma cell line) |
| --- | --- | --- |
| O=C(CSc1nnc(Nc2ccc(Cl)cc2Cl)s1)NCc1ccc2c(c1)OCO2 [Compound 5, N-(1,3-Benzodioxol-5-ylmethyl)-2-{[5-((2,4-dichlorophenyl)amino)-1,3,4-thiadiazol-2-yl]thio}acetamide] | 100 | 100 |
| Nn1c(COc2ccccc2)nnc1SCC(=O)NCc1ccc2c(c1)OCO2 [Compound 6, 2-{[4-Amino-5-(phenoxymethyl)-4H-1,2,4-triazol-3-yl]thio}-N-(1,3-benzodioxol-5-ylmethyl)acetamide] | 100 | 100 |
| COc1ccc(OCc2nnc(SCC(=O)NCc3ccc4c(c3)OCO4)o2)cc1 [Compound 7, N-(1,3-Benzodioxol-5-ylmethyl)-2-{[5-((4-methoxyphenoxy)methyl)-1,3,4-oxadiazol-2-yl]thio}acetamide] | 8.576 | 8.576 |
| Nn1c(COc2ccccc2)nnc1SCC(=O)N1CCOCC1 [Compound 2, 2-{[4-Amino-5-(phenoxymethyl)-4H-1,2,4-triazol-3-yl]thio}-1-morpholinoethan-1-one] | 98.673 | 98.673 |
| O=C(CSc1nnc(COc2ccc3c(c2)CCCC3)o1)NCc1ccc2c(c1)OCO2 [Compound 8, N-(1,3-Benzodioxol-5-ylmethyl)-2-{[5-(((5,6,7,8-tetrahydronaphthalen-2-yl)oxy)methyl)-1,3,4-oxadiazol-2-yl]thio}acetamide] | 883.2 | 805.8 and 805.839 |
| O=C(CSc1nnc(Nc2ccc(Cl)cc2Cl)s1)N1CCOCC1 [Compound 1, 2-{[5-((2,4-Dichlorophenyl)amino)-1,3,4-thiadiazol-2-yl]thio}-1-morpholinoethan-1-one] | 24.959 | 240.625 |
| O=C(CSc1nnc(-c2ccccc2)o1)NCc1ccc2c(c1)OCO2 [Compound 9, N-(1,3-Benzodioxol-5-ylmethyl)-2-[(5-phenyl-1,3,4-oxadiazol-2-yl)thio]acetamide] | 254.441 | 565.6 and 565.605 |
| COc1ccc(OCc2nnc(SCC(=O)N3CCOCC3)o2)cc1 [Compound 3, 2-{[5-((4-Methoxyphenoxy)methyl)-1,3,4-oxadiazol-2-yl]thio}-1-morpholinoethan-1-one] | 100 | 270.018 |
| N.N.[Cl][Pt][Cl] [Cisplatin, reference compound] | 1190 | 1617.476 |
